In the supplement of paper PMC9454738:
Structures can show the parent of a compound that is named as a salt. ± gives the standard deviation of the averaged measurements. The list shows a part of the results. This data set is noisy: repeats of one test often differ as much as different tests do.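 Test systems: triple-negative MDA-MB-231 breast cancer cells and their brain-metastatic MDA-MB-231BRM derivative, each stably carrying empty vector, full-length GLI1 or truncated tGLI1. Viability after 48 h was read by CellTiter-Blue and expressed against 1% DMSO vehicle. A compound was tGLI1-selective if it lowered viability 20% more in tGLI1 cells than in vector and GLI1 cells.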

The molecules below were run on MDA-MB-231BRM GLI1 (assay: cell viability relative to vehicle (DMSO) control (fraction); higher = more viable cells (less growth inhibition)). Settings: 0.05 µM; treatment time 48 h.

Structure (SMILES)	cell viability
C[C@H]1[C@H](C)CC[C@]2(C(=O)O)CC[C@]3(C)C(=CC[C@@H]4[C@@]5(C)C[C@@H](O)[C@H](O)[C@@](C)(CO)[C@@H]5CC[C@]43C)[C@H]12 [Asiatic Acid]	1.07
O=C1NC(=O)C(c2ccccc2[N+](=O)[O-])=C1Nc1ccc(O)c(Cl)c1	1.02
Cc1c(Cn2c(C)nc3c(C(=O)O)cc(N4CCOCC4)cc32)cccc1C(F)(F)F	0.503
Cc1ccc(NC(=O)c2ccc(CN3CCN(C)CC3)cc2)cc1Nc1nccc(-c2cccnc2)n1 [Imatinib (STI571)]	0.963
CCC(=O)NCC[C@@H]1CCc2ccc3c(c21)CCO3 [Ramelteon (TAK-375)]	1.03
NC(=O)Nc1cc(-c2cccc(F)c2)sc1C(=O)N[C@H]1CCCNC1	0.764
COc1cc2ncnc(Oc3ccc(CC(=O)Nc4cnn(C(C)C)c4)cc3)c2cc1OC	1.05
CC(C)(C)NS(=O)(=O)c1cncc(-c2cc(F)c3nc(N)nn3c2)c1	1
O=C(Nc1cc(C(F)(F)F)cc(C(F)(F)F)c1)c1cc(Cl)ccc1O	0.99
CN1CCC(COc2cnc(-c3cccc(Cn4nc(-c5cccc(C#N)c5)ccc4=O)c3)nc2)CC1	1.06
CC(C)CC(=O)Nc1n[nH]c2c1CN(C(=O)C1CCN(C)CC1)C2(C)C	0.536
COc1cc2ncc(-c3ccccc3)nc2cc1OC [Tyrphostin AG 1296]	0.462
C1=N/C2=N/c3ccc(OCCN4CCCC4)c(c3)COC/C=C/COCc3cccc(c3)C(=C1)N2 [Pacritinib (SB1518)]	0.542
O=C(NCCO)c1cccc(-c2cc(Nc3ccc(OC(F)(F)F)cc3)ncn2)c1	0.885
N#CC(=C(/N)Sc1ccccc1N)/C(C#N)=C(\N)Sc1ccccc1N	0.992
CN(C)Cc1cccc(N/C(=C2\C(=O)Nc3cc(C(N)=O)ccc32)c2ccccc2)c1	1.17
C[C@@H](CN1CC(=O)NC(=O)C1)N1CC(=O)NC(=O)C1 [Dexrazoxane Hydrochloride]	1.03
COc1ccc(-c2ccc3ncc4c(c3c2)n(-c2ccc(N3CCNCC3)c(C(F)(F)F)c2)c(=O)n4C)cn1	0.953
CC(C)(C)c1cnc(CSc2cnc(NC(=O)C3CCNCC3)s2)o1	1.07
Cc1c(F)cc(C(=O)NC2CC2)cc1-c1ccc(C(=O)NCC(C)(C)C)cn1	1.06

Structure (SMILES)	cell viability
CCCC1O[C@@H]2C[C@H]3[C@@H]4CCC5=CC(=O)C=C[C@]5(C)[C@H]4[C@@H](O)C[C@]3(C)[C@]2(C(=O)CO)O1 (stereo partly drawn) [Budesonide]	1
C[C@@H](Oc1cc(-c2cnn(C3CCNCC3)c2)cnc1N)c1c(Cl)ccc(F)c1Cl	0.96 ± 0.059
O=C1NC(=O)/C(=C/c2ccc3nccc(-c4ccncc4)c3c2)S1	1.2
Cc1ccc2nc(NCCN)c3ncc(C)n3c2c1	0.805
CC(=O)[C@]1(O)Cc2c(O)c3c(c(O)c2[C@@H](O[C@H]2C[C@H](N)[C@H](O)[C@H](C)O2)C1)C(=O)c1ccccc1C3=O [Idarubicin HCl]	0.188
NC1(c2ccc(-c3nc4ccn5c(=O)[nH]nc5c4cc3-c3ccccc3)cc2)CCC1	0.94
O=C1NC(=O)/C(=C/c2ccc(-c3ccc(F)cc3O)o2)S1	0.988
CN(C)CCOc1ccc(-c2nc(-c3ccncc3)c(-c3ccc4c(c3)CC/C4=N\O)[nH]2)cc1	1.12
O=C1NC(=O)/C(=C/c2cccc(C(F)(F)F)c2)S1	0.812
C=CC(=O)Nc1ccc2ncnc(Nc3cccc(Br)c3)c2c1	1.01
COc1cc(F)c(F)c(Nc2ccc(I)cc2F)c1NS(=O)(=O)C1(C[C@H](O)CO)CC1 [Refametinib (RDEA119, Bay 86-9766)]	0.981
Cc1cc(CN2CCN(c3c(Br)cnc4nc(-c5ccc(N6CCN(C)CC6)cc5)[nH]c34)CC2)no1	0.969
Cc1cc(F)c(Nc2ncnc3cc(OCc4ccccc4)ccc23)cc1O	0.931
CN1CCC(CNc2ccc3ncc(-c4cccc(OC(F)(F)F)c4)n3n2)CC1 [SGI-1776 free base]	1.16
COc1cc(OC)c(/C=C/S(=O)(=O)Cc2ccc(OC)c(NCC(=O)O)c2)c(OC)c1	1.12
COc1ncc(-c2ccc3nccc(-c4ccnnc4)c3c2)cc1NS(=O)(=O)c1ccc(F)cc1F	0.986
S=C(NCc1ccc2c(c1)OCO2)N1CCN(c2ncnc3c2oc2ccccc23)CC1 [Amuvatinib (MP-470)]	1.22
OCCn1cc(-c2cnc3nnn(Cc4ccc5ncccc5c4)c3n2)cn1	0.942
Cc1c(NC(=O)c2ccc(C(C)(C)C)cc2)cccc1-c1cn(C)c(=O)c(Nc2ccc(C(=O)N3CCOCC3)cc2)n1	1.1

Same assay, conditions: 0.5 µM; treatment time 48 h

Structure (SMILES)	cell viability
C[C@H]1[C@H](C)CC[C@]2(C(=O)O)CC[C@]3(C)C(=CC[C@@H]4[C@@]5(C)C[C@@H](O)[C@H](O)[C@@](C)(CO)[C@@H]5CC[C@]43C)[C@H]12 [Asiatic Acid]	1.04
O=C1NC(=O)C(c2ccccc2[N+](=O)[O-])=C1Nc1ccc(O)c(Cl)c1	1.02
Cc1c(Cn2c(C)nc3c(C(=O)O)cc(N4CCOCC4)cc32)cccc1C(F)(F)F	0.531
Cc1ccc(NC(=O)c2ccc(CN3CCN(C)CC3)cc2)cc1Nc1nccc(-c2cccnc2)n1 [Imatinib (STI571)]	1
CCC(=O)NCC[C@@H]1CCc2ccc3c(c21)CCO3 [Ramelteon (TAK-375)]	1.01
NC(=O)Nc1cc(-c2cccc(F)c2)sc1C(=O)N[C@H]1CCCNC1	1.26
COc1cc2ncnc(Oc3ccc(CC(=O)Nc4cnn(C(C)C)c4)cc3)c2cc1OC	0.961
CC(C)(C)NS(=O)(=O)c1cncc(-c2cc(F)c3nc(N)nn3c2)c1	1.02
O=C(Nc1cc(C(F)(F)F)cc(C(F)(F)F)c1)c1cc(Cl)ccc1O	0.988
CN1CCC(COc2cnc(-c3cccc(Cn4nc(-c5cccc(C#N)c5)ccc4=O)c3)nc2)CC1	0.954
CC(C)CC(=O)Nc1n[nH]c2c1CN(C(=O)C1CCN(C)CC1)C2(C)C	1.11
COc1cc2ncc(-c3ccccc3)nc2cc1OC [Tyrphostin AG 1296]	0.406
C1=N/C2=N/c3ccc(OCCN4CCCC4)c(c3)COC/C=C/COCc3cccc(c3)C(=C1)N2 [Pacritinib (SB1518)]	0.469
O=C(NCCO)c1cccc(-c2cc(Nc3ccc(OC(F)(F)F)cc3)ncn2)c1	0.795
N#CC(=C(/N)Sc1ccccc1N)/C(C#N)=C(\N)Sc1ccccc1N	1
CN(C)Cc1cccc(N/C(=C2\C(=O)Nc3cc(C(N)=O)ccc32)c2ccccc2)c1	1.16
C[C@@H](CN1CC(=O)NC(=O)C1)N1CC(=O)NC(=O)C1 [Dexrazoxane Hydrochloride]	1.05
COc1ccc(-c2ccc3ncc4c(c3c2)n(-c2ccc(N3CCNCC3)c(C(F)(F)F)c2)c(=O)n4C)cn1	0.842
CC(C)(C)c1cnc(CSc2cnc(NC(=O)C3CCNCC3)s2)o1	1.13
Cc1c(F)cc(C(=O)NC2CC2)cc1-c1ccc(C(=O)NCC(C)(C)C)cn1	0.951

Structure (SMILES)	cell viability
CCCC1O[C@@H]2C[C@H]3[C@@H]4CCC5=CC(=O)C=C[C@]5(C)[C@H]4[C@@H](O)C[C@]3(C)[C@]2(C(=O)CO)O1 (stereo partly drawn) [Budesonide]	1.1
C[C@@H](Oc1cc(-c2cnn(C3CCNCC3)c2)cnc1N)c1c(Cl)ccc(F)c1Cl	0.955 ± 0.032
O=C1NC(=O)/C(=C/c2ccc3nccc(-c4ccncc4)c3c2)S1	0.55
Cc1ccc2nc(NCCN)c3ncc(C)n3c2c1	0.797
CC(=O)[C@]1(O)Cc2c(O)c3c(c(O)c2[C@@H](O[C@H]2C[C@H](N)[C@H](O)[C@H](C)O2)C1)C(=O)c1ccccc1C3=O [Idarubicin HCl]	-0.0564
NC1(c2ccc(-c3nc4ccn5c(=O)[nH]nc5c4cc3-c3ccccc3)cc2)CCC1	0.972
O=C1NC(=O)/C(=C/c2ccc(-c3ccc(F)cc3O)o2)S1	1.07
CN(C)CCOc1ccc(-c2nc(-c3ccncc3)c(-c3ccc4c(c3)CC/C4=N\O)[nH]2)cc1	1.09
O=C1NC(=O)/C(=C/c2cccc(C(F)(F)F)c2)S1	0.769
C=CC(=O)Nc1ccc2ncnc(Nc3cccc(Br)c3)c2c1	0.939
COc1cc(F)c(F)c(Nc2ccc(I)cc2F)c1NS(=O)(=O)C1(C[C@H](O)CO)CC1 [Refametinib (RDEA119, Bay 86-9766)]	1
Cc1cc(CN2CCN(c3c(Br)cnc4nc(-c5ccc(N6CCN(C)CC6)cc5)[nH]c34)CC2)no1	0.949
Cc1cc(F)c(Nc2ncnc3cc(OCc4ccccc4)ccc23)cc1O	0.984
CN1CCC(CNc2ccc3ncc(-c4cccc(OC(F)(F)F)c4)n3n2)CC1 [SGI-1776 free base]	1.06
COc1cc(OC)c(/C=C/S(=O)(=O)Cc2ccc(OC)c(NCC(=O)O)c2)c(OC)c1	1.36
COc1ncc(-c2ccc3nccc(-c4ccnnc4)c3c2)cc1NS(=O)(=O)c1ccc(F)cc1F	1.02
S=C(NCc1ccc2c(c1)OCO2)N1CCN(c2ncnc3c2oc2ccccc23)CC1 [Amuvatinib (MP-470)]	1.14
OCCn1cc(-c2cnc3nnn(Cc4ccc5ncccc5c4)c3n2)cn1	0.926
Cc1c(NC(=O)c2ccc(C(C)(C)C)cc2)cccc1-c1cn(C)c(=O)c(Nc2ccc(C(=O)N3CCOCC3)cc2)n1	0.975
